{"sequences": {"note": "Amino acid sequences for entries named in this document (tags omitted).", "UniProt Q96CT2": "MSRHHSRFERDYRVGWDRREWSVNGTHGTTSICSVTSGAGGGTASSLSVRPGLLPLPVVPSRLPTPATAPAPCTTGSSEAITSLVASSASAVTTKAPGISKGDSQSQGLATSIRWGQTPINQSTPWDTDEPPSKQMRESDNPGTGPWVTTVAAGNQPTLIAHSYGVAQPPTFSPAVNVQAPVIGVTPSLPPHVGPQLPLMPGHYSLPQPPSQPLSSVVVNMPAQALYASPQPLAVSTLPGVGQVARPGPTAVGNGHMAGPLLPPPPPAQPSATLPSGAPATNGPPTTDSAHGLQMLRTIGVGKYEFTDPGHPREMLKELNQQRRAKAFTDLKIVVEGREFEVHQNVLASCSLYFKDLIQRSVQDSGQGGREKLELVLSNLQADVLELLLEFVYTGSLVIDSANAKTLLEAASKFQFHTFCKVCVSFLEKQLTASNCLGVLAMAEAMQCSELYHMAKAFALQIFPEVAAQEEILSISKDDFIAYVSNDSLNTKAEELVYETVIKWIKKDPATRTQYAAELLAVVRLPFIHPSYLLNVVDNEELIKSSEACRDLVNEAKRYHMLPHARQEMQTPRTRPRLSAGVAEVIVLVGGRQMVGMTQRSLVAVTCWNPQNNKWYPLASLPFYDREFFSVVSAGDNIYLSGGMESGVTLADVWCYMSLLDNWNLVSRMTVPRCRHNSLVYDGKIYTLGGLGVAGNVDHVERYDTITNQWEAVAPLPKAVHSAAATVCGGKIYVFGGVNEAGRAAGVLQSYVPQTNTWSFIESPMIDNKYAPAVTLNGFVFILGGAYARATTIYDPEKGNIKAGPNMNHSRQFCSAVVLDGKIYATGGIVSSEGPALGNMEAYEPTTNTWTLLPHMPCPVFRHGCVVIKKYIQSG", "UniProt O00571": "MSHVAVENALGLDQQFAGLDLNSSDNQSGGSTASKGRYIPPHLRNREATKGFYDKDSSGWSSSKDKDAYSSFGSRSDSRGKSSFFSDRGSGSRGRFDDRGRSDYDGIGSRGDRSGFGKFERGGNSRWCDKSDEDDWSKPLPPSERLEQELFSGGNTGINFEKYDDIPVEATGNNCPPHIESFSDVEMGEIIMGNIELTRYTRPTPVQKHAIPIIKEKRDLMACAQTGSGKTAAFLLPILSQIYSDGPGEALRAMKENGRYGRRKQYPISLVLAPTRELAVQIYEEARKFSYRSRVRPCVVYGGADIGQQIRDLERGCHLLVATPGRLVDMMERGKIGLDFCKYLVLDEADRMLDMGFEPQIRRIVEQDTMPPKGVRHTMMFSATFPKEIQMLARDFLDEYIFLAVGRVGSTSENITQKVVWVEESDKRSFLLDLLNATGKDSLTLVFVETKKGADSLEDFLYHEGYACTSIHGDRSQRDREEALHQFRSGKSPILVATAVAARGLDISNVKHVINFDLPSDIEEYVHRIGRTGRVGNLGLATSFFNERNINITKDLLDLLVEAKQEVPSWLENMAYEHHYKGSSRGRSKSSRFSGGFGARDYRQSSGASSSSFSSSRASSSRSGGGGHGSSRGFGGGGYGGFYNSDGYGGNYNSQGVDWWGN"}, "source": "paper PMC10656286", "molecular_target": "Flag-KLHL29 (pCDH-Flag-KLHL29, stably expressed) (UniProt Q96CT2)", "assay": "affinity purification with mass spectrometry; IP from BT549 and CAL51 cells stably expressing pCDH-Flag or pCDH-Flag-KLHL29, followed by MS analysis", "note": "These are yes or no findings as the source states them, for the method shown. In cells and extracts the contact can be indirect. These calls come from enrichment with a bait or labelling near it, and not all partners need be listed."}
{"substance": "DDX3X (endogenous, BT549 and CAL51) (from UniProt O00571 1-662)", "values": [{"measurement": "binding", "result": "binds"}]}
